Measurements reported in PubChem BioAssay AID1259254 (NCATS, 2017)
Here is a random part of about 59,000 reagents. Of all reagents, about 1,550 (2.6%) got an active call. 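G2 share is only a proxy for re-replication; each gene was hit by three separate siRNAs, and active genes were retested.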 The raw values are shown without normalisation. Reagents against one gene are numbered here. Not stated in the record: the amount of reagent.

- Test: 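Genome-wide screen for genes that prevent DNA re-replication in cancer cells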 (primary screen)
- System: human HCT116 colorectal cancer cells
- Reagents: single siRNA against human genes
- Duration: 3 days
- Read-out: 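Imaged Hoechst DNA stain sorts each cell into a cycle phase by DNA amount; per plate, G2 fraction set to 0% for non-targeting and 100% for GMNN siRNA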
- Scale: G2 robust z-score and G2 cells, % of GMNN control: higher = more G2 cells, more excess DNA replication; raw share of cells in G2: higher = larger share of cells with G2 DNA content
- Rule for the call: 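Active siRNAs have a G2 robust z of 5 or more median absolute deviations over the median, which in these data means about 38% or higher of GMNN control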

no.	gene	reagent no.	G2 robust z-score	G2 cells, % of GMNN control	raw share of cells in G2 (%)	outcome
1	RIC3	1	1.23	11.6	9.65	inactive
2	RIC3	2	0.524	6.66	7.59	inactive
3	RIC3	3	-0.894	-3.32	1.82	inactive
4	SYT10	1	3.82	29.8	13.4	inactive
5	SYT10	2	0.0616	3.4	4.35	inactive
6	SYT10	3	-0.454	-0.229	3.44	inactive
7	TMED8	1	0.715	8	6.56	inactive
8	TMED8	2	-0.618	-1.38	2.51	inactive
9	TMED8	3	0.282	4.95	4.77	inactive
10	HPS1	1	-1.02	-4.2	3.33	inactive
11	HPS1	2	-0.715	-2.06	3.33	inactive
12	HPS1	3	-0.489	-0.471	3.34	inactive
13	SMLR1	1	-0.45	-0.197	3.21	inactive
14	SMLR1	2	0.187	4.28	5.2	inactive
15	SMLR1	3	3.65	28.6	14.1	inactive
16	VWC2L	1	0.874	9.12	7.13	inactive
17	VWC2L	2	-0.426	-0.0306	3.5	inactive
18	VWC2L	3	-0.912	-3.45	3.36	inactive
19	ACBD6	1	-0.352	0.494	4.27	inactive
20	ACBD6	2	-0.87	-3.15	2.52	inactive
21	ACBD6	3	-0.688	-1.87	1.84	inactive
22	THAP3	1	1.93	16.6	13.4	inactive
23	THAP3	2	-0.718	-2.08	4.07	inactive
24	THAP3	3	0.562	6.92	7.09	inactive
25	AKAP9	1	0.031	3.19	7.08	inactive
26	AKAP9	2	-0.821	-2.81	5.37	inactive
27	AKAP9	3	-0.426	-0.0306	3.83	inactive
28	HGS	1	-0.603	-1.27	5.19	inactive
29	HGS	2	0.102	3.69	6.53	inactive
30	HGS	3	-0.222	1.4	4.13	inactive
31	IL25	1	0.373	5.59	4.17	inactive
32	IL25	2	0.0905	3.6	6.15	inactive
33	IL25	3	-0.471	-0.348	4.45	inactive
34	GTF2H1	1	0.475	6.31	5.99	inactive
35	GTF2H1	2	0.686	7.79	8.96	inactive
36	GTF2H1	3	1.83	15.9	9.9	inactive
37	APRG1	1	-0.728	-2.15	3.25	inactive
38	APRG1	2	6.14	46.2	23.5	active
39	APRG1	3	-0.546	-0.871	3.84	inactive
40	RETREG3	1	0.758	8.3	6.58	inactive
41	RETREG3	2	1.95	16.7	8.56	inactive
42	RETREG3	3	1.63	14.4	7.32	inactive
43	DCDC2	1	1.01	10.1	7.2	inactive
44	DCDC2	2	-0.0409	2.68	5.4	inactive
45	DCDC2	3	-0.0244	2.8	4.12	inactive
46	CCDC169	1	-0.803	-2.68	2.9	inactive
47	CCDC169	2	1.1	10.7	6.78	inactive
48	CCDC169	3	0.476	6.31	5.56	inactive
49	IFT70A	1	5.74	43.4	22.5	active
50	IFT70A	2	0.566	6.95	5.18	inactive
51	IFT70A	3	0.653	7.56	5.32	inactive
52	ALS2CL	1	1.04	10.3	7.4	inactive
53	ALS2CL	2	2.74	22.3	11.7	inactive
54	ALS2CL	3	-0.197	1.58	3.75	inactive
55	CLN5	1	-0.707	-2.01	4.36	inactive
56	CLN5	2	2.58	21.1	11.8	inactive
57	CLN5	3	0.588	7.11	6.31	inactive
58	SRSF1	1	1.94	16.6	11.3	inactive
59	SRSF1	2	0.745	8.21	7.36	inactive
60	SRSF1	3	11	80.4	30.6	active
61	AMD1P3	1	-0.328	0.663	4.35	inactive
62	AMD1P3	2	0.258	4.78	4.83	inactive
63	AMD1P3	3	0.554	6.87	5.68	inactive
64	LOC728376	1	-0.973	-3.88	2.13	inactive
65	LOC728376	2	-0.353	0.484	3.73	inactive
66	LOC728376	3	1.4	12.8	7.4	inactive
67	EPHA5	1	-1.56	-7.99	2.97	inactive
68	EPHA5	2	-1.31	-6.21	3.32	inactive
69	EPHA5	3	0.785	8.49	7.02	inactive

Called active, of those listed so far:
gene	reagent no.	G2 robust z-score	G2 cells, % of GMNN control	raw share of cells in G2 (%)	outcome
APRG1	2	6.14	46.2	23.5	active
IFT70A	1	5.74	43.4	22.5	active
SRSF1	3	11	80.4	30.6	active
